{"source": "patent EP0004516A2", "about": "“Pharmaceutical compositions active on the gastro-intestinal motricity” (SCIENCE UNION ET Cie SOCIETE FRANCAISE DE RECHERCHE MEDICALE, priority 1978, dated 1979)", "test_system": "médiateurs chimiques cérébraux", "details": "in vivo", "data": [{"smiles": "CN1c2ccccc2C(NCCCCCCC(=O)O)c2ccc(Cl)cc2S1(=O)=O", "note": "(racemic) [principe actif, acide 7-[(3-chloro 6-méthyl 5,5-dioxo 6,11-dihydrodibenzo (c,f)thiazepin 1,2-11-yl)amino] heptanoique]", "values": [{"measurement": "métabolisme de la dopamine", "value": "accélération"}, {"measurement": "sérotonine", "value": "baisse"}, {"measurement": "taux d'acétylcholine cérébrale", "value": "augmentation"}]}]}
